Article PMC12557367 (Journal of Medicinal Chemistry, 2025)
Numbered stars: 1 amine (or outer) side, 2 acyl side, 3 side chain; on linkers, the order of the positions; unused ones are H or OH. Bridge positions count the residues as written; N and C are the ends. Square brackets hold non-standard residues; d marks the D form. * marks the point of attachment. DOTA = O=C(O)CN1CCN(CC(=O)O)CCN(CC(=O)*)CCN(CC(=O)O)CC1; TATA = O=C(CC[*:1])N1CN(C(=O)CC[*:2])CN(C(=O)CC[*:3])C1; X1 = O=C(O)CN1CCN(CC(=O)O)CCN([C@H](CCC(=O)*)C(=O)O)CC1; 1Nal = N[C@@H](Cc1cccc2ccccc12)C(=O)O; 2Nal = N[C@@H](Cc1ccc2ccccc2c1)C(=O)O; Hyp = O=C(O)[C@@H]1C[C@@H](O)CN1; hArg = N=C(N)NCCCC[C@H](N)C(=O)O; SeMet = C[Se]CC[C@H](N)C(=O)O; hSer = N[C@@H](CCO)C(=O)O; Nle = CCCC[C@H](N)C(=O)O

Test: general procedure: Fmoc solid-phase peptide synthesis; Fmoc-Rink Amide resin (2-ClTrtCl resin for 8d); HATU/DIPEA
Settings: whole synthesis; for final HPLC purity: 230 nm; for isolated yield: on resin loading

For “CSCC[C@@H]1NC(=O)[C@@H]2CSCCC(=O)N3CN(CN(C3)C(=O)CCSC[C@H](NC(C)=O)C(=O)N3CCC[C@H]3C(=O)N[C@@H](Cc3cccc4ccccc34)C(=O)N[C@H](CC(=O)O)C(=O)N2)C(=O)CCSC[C@@H](C(N)=O)NC(=O)[C@H](Cc2c[nH]c3ccccc23)NC(=O)[C@@H]2C[C@@H](O)CN2C(=O)[C@@H]2CCCN2C(=O)[C@H]([C@@H](C)O)NC(=O)[C@H](CO)NC(=O)[C@H](Cc2c[nH]c3ccccc23)NC(=O)[C@H](CC(=O)O)NC(=O)[C@H](CCCCNC(=N)N)NC1=O”, the “final HPLC purity” value was greater than 97% and the isolated yield was 10%.
In the case of “C[Se]CC[C@@H]1NC(=O)[C@@H]2CSCCC(=O)N3CN(CN(C3)C(=O)CCSC[C@H](NC(=O)CC[C@H](C(=O)O)N3CCN(CC(=O)O)CCN(CC(=O)O)CC3)C(=O)N3CCC[C@H]3C(=O)N[C@@H](Cc3cccc4ccccc34)C(=O)N[C@H](CC(=O)O)C(=O)N2)C(=O)CCSC[C@@H](C(N)=O)NC(=O)[C@H](Cc2c[nH]c3ccccc23)NC(=O)[C@@H]2C[C@@H](O)CN2C(=O)[C@@H]2CCCN2C(=O)[C@H]([C@@H](C)O)NC(=O)[C@H](CO)NC(=O)[C@H](Cc2c[nH]c3ccccc23)NC(=O)[C@H](CC(=O)O)NC(=O)[C@H](CCCCNC(=N)N)NC1=O (X1-CP[1Nal][dD]C[SeMet][hArg]DWSTP[Hyp]WC-NH2; linker 1-5-15 via TATA)”, the “final HPLC purity” value was greater than 61% and the isolated yield was 6%.
With “CSCC[C@@H]1NC(=O)[C@@H]2CSCCC(=O)N3CN(CN(C3)C(=O)CCSC[C@H](N)C(=O)N3CCC[C@H]3C(=O)N[C@@H](Cc3cccc4ccccc34)C(=O)N[C@H](CC(=O)O)C(=O)N2)C(=O)CCSC[C@@H](C(N)=O)NC(=O)[C@H](Cc2c[nH]c3ccccc23)NC(=O)[C@@H]2C[C@@H](O)CN2C(=O)[C@@H]2CCCN2C(=O)[C@H]([C@@H](C)O)NC(=O)[C@H](CO)NC(=O)[C@H](Cc2c[nH]c3ccccc23)NC(=O)[C@H](CC(=O)O)NC(=O)[C@H](CCCCNC(=N)N)NC1=O” the “final HPLC purity” value was greater than 98% and the isolated yield was 4%.
For “CSCC[C@@H]1NC(=O)[C@@H]2CSCCC(=O)N3CN(CN(C3)C(=O)CCSC[C@H](NC(=O)c3ccc(C(=O)O)c(-c4c5ccc(=[N+](C)C)cc-5oc5cc(N(C)C)ccc45)c3)C(=O)N3CCC[C@H]3C(=O)N[C@@H](Cc3cccc4ccccc34)C(=O)N[C@H](CC(=O)O)C(=O)N2)C(=O)CCSC[C@@H](C(N)=O)NC(=O)[C@H](Cc2c[nH]c3ccccc23)NC(=O)[C@@H]2C[C@@H](O)CN2C(=O)[C@@H]2CCCN2C(=O)[C@H]([C@@H](C)O)NC(=O)[C@H](CO)NC(=O)[C@H](Cc2c[nH]c3ccccc23)NC(=O)[C@H](CC(=O)O)NC(=O)[C@H](CCCCNC(=N)N)NC1=O”, the “final HPLC purity” value was greater than 98% and the isolated yield was 4%.
In the case of “CCOC[C@@H]1NC(=O)[C@@H]2CSCCC(=O)N3CN(CN(C3)C(=O)CCSC[C@H](NC(=O)CC[C@H](C(=O)O)N3CCN(CC(=O)O)CCN(CC(=O)O)CC3)C(=O)N3CCC[C@H]3C(=O)N[C@@H](Cc3cccc4ccccc34)C(=O)N[C@H](CC(=O)O)C(=O)N2)C(=O)CCSC[C@@H](C(N)=O)NC(=O)[C@H](Cc2c[nH]c3ccccc23)NC(=O)[C@@H]2C[C@@H](O)CN2C(=O)[C@@H]2CCCN2C(=O)[C@H]([C@@H](C)O)NC(=O)[C@H](CO)NC(=O)[C@H](Cc2c[nH]c3ccccc23)NC(=O)[C@H](CC(=O)O)NC(=O)[C@H](CCCCNC(=N)N)NC1=O (X1-CP[1Nal][dD]CS(Et)[hArg]DWSTP[Hyp]WC-NH2; linker 1-5-15 via TATA; SMILES CCOC[C@@H]1NC(=O)[C@@H]2CSCCC(=O)N3CN(CN(C3)C(=O)CCSC[C@H](NC(=O)CC[C@H](C(=O)O)N3CCN(CC(=O)O)CCN(CC(=O)O)CC3)C(=O)N3CCC[C@H]3C(=O)N[C@@H](Cc3cccc4ccccc34)C(=O)N[C@H](CC(=O)O)C(=O)N2)C(=O)CCSC[C@@H](C(N)=O)NC(=O)[C@H](Cc2c[nH]c3ccccc23)NC(=O)[C@@H]2C[C@@H](O)CN2C(=O)[C@@H]2CCCN2C(=O)[C@H]([C@@H](C)O)NC(=O)[C@H](CO)NC(=O)[C@H](Cc2c[nH]c3ccccc23)NC(=O)[C@H](CC(=O)O)NC(=O)[C@H](CCCCNC(=N)N)NC1=O)”, the “final HPLC purity” value was greater than 98% and the isolated yield was 7%.
With “CSCC[C@@H]1NC(=O)[C@@H]2CSCCC(=O)N3CN(CN(C3)C(=O)CCSC[C@H](NC(=O)c3ccc(C(=O)O)c(-c4c5ccc(=O)cc-5oc5cc(O)ccc45)c3)C(=O)N3CCC[C@H]3C(=O)N[C@@H](Cc3cccc4ccccc34)C(=O)N[C@H](CC(=O)O)C(=O)N2)C(=O)CCSC[C@@H](C(N)=O)NC(=O)[C@H](Cc2c[nH]c3ccccc23)NC(=O)[C@@H]2C[C@@H](O)CN2C(=O)[C@@H]2CCCN2C(=O)[C@H]([C@@H](C)O)NC(=O)[C@H](CO)NC(=O)[C@H](Cc2c[nH]c3ccccc23)NC(=O)[C@H](CC(=O)O)NC(=O)[C@H](CCCCNC(=N)N)NC1=O” the “final HPLC purity” value was greater than 98% and the isolated yield was 12%.
For “CCCC[C@@H]1NC(=O)[C@@H]2CSCCC(=O)N3CN(CN(C3)C(=O)CCSC[C@H](NC(C)=O)C(=O)N3CCC[C@H]3C(=O)N[C@@H](Cc3cccc4ccccc34)C(=O)N[C@H](CC(=O)O)C(=O)N2)C(=O)CCSC[C@@H](C(N)=O)NC(=O)[C@H](Cc2c[nH]c3ccccc23)NC(=O)[C@@H]2C[C@@H](O)CN2C(=O)[C@@H]2CCCN2C(=O)[C@H]([C@@H](C)O)NC(=O)[C@H](CO)NC(=O)[C@H](Cc2c[nH]c3ccccc23)NC(=O)[C@H](CC(=O)O)NC(=O)[C@H](CCCCNC(=N)N)NC1=O (Ac-CP[1Nal][dD]C[Nle][hArg]DWSTP[Hyp]WC-NH2; linker 1-5-15 via TATA)”, the “final HPLC purity” value was greater than 97% and the isolated yield was 10%.
In the case of “CSCC[C@@H]1NC(=O)[C@@H]2CSCCC(=O)N3CN(CN(C3)C(=O)CCSC[C@H](NC(=O)CN3CCN(CC(=O)O)CCN(CC(=O)O)CCN(CC(=O)O)CC3)C(=O)N3CCC[C@H]3C(=O)N[C@@H](Cc3ccc4ccccc4c3)C(=O)N[C@H](CC(=O)O)C(=O)N2)C(=O)CCSC[C@@H](C(N)=O)NC(=O)[C@H](Cc2c[nH]c3ccccc23)NC(=O)[C@@H]2C[C@@H](O)CN2C(=O)[C@@H]2CCCN2C(=O)[C@H]([C@@H](C)O)NC(=O)[C@H](CO)NC(=O)[C@H](Cc2c[nH]c3ccccc23)NC(=O)[C@H](CC(=O)O)NC(=O)[C@H](CCCNC(=N)N)NC1=O ({DOTA}-CP[2Nal][dD]CMRDWSTP[Hyp]WC-NH2; linker 1-5-15 via TATA)”, the “final HPLC purity” value was greater than 99% and the isolated yield was 4%.
For “COCC[C@@H]1NC(=O)[C@@H]2CSCCC(=O)N3CN(CN(C3)C(=O)CCSC[C@H](NC(=O)CC[C@H](C(=O)O)N3CCN(CC(=O)O)CCN(CC(=O)O)CC3)C(=O)N3CCC[C@H]3C(=O)N[C@@H](Cc3cccc4ccccc34)C(=O)N[C@H](CC(=O)O)C(=O)N2)C(=O)CCSC[C@@H](C(N)=O)NC(=O)[C@H](Cc2c[nH]c3ccccc23)NC(=O)[C@@H]2C[C@@H](O)CN2C(=O)[C@@H]2CCCN2C(=O)[C@H]([C@@H](C)O)NC(=O)[C@H](CO)NC(=O)[C@H](Cc2c[nH]c3ccccc23)NC(=O)[C@H](CC(=O)O)NC(=O)[C@H](CCCCNC(=N)N)NC1=O [4] (X1-CP[1Nal][dD]C[hSer](Me)[hArg]DWSTP[Hyp]WC-NH2; linker 1-5-15 via TATA)”, the “final HPLC purity” value was greater than 98% and the isolated yield was 9%.
In the case of “CSCC[C@@H]1NC(=O)[C@@H]2CSCCC(=O)N3CN(CN(C3)C(=O)CCSC[C@H](NC(=O)CC[C@H](C(=O)O)N3CCN(CC(=O)O)CCN(CC(=O)O)CC3)C(=O)N3CCC[C@H]3C(=O)N[C@@H](Cc3ccc4ccccc4c3)C(=O)N[C@H](CC(=O)O)C(=O)N2)C(=O)CCSC[C@@H](C(N)=O)NC(=O)[C@H](Cc2c[nH]c3ccccc23)NC(=O)[C@@H]2C[C@@H](O)CN2C(=O)[C@@H]2CCCN2C(=O)[C@H]([C@@H](C)O)NC(=O)[C@H](CO)NC(=O)[C@H](Cc2c[nH]c3ccccc23)NC(=O)[C@H](CC(=O)O)NC(=O)[C@H](CCCNC(=N)N)NC1=O (X1-CP[2Nal][dD]CMRDWSTP[Hyp]WC-NH2; linker 1-5-15 via TATA)”, the “final HPLC purity” value was greater than 95% and the isolated yield was 6%.
For “CCSC[C@@H]1NC(=O)[C@@H]2CSCCC(=O)N3CN(CN(C3)C(=O)CCSC[C@H](NC(=O)CC[C@H](C(=O)O)N3CCN(CC(=O)O)CCN(CC(=O)O)CC3)C(=O)N3CCC[C@H]3C(=O)N[C@@H](Cc3cccc4ccccc34)C(=O)N[C@H](CC(=O)O)C(=O)N2)C(=O)CCSC[C@@H](C(N)=O)NC(=O)[C@H](Cc2c[nH]c3ccccc23)NC(=O)[C@@H]2C[C@@H](O)CN2C(=O)[C@@H]2CCCN2C(=O)[C@H]([C@@H](C)O)NC(=O)[C@H](CO)NC(=O)[C@H](Cc2c[nH]c3ccccc23)NC(=O)[C@H](CC(=O)O)NC(=O)[C@H](CCCCNC(=N)N)NC1=O (X1-CP[1Nal][dD]CC(Et)[hArg]DWSTP[Hyp]WC-NH2; linker 1-5-15 via TATA; SMILES CCSC[C@@H]1NC(=O)[C@@H]2CSCCC(=O)N3CN(CN(C3)C(=O)CCSC[C@H](NC(=O)CC[C@H](C(=O)O)N3CCN(CC(=O)O)CCN(CC(=O)O)CC3)C(=O)N3CCC[C@H]3C(=O)N[C@@H](Cc3cccc4ccccc34)C(=O)N[C@H](CC(=O)O)C(=O)N2)C(=O)CCSC[C@@H](C(N)=O)NC(=O)[C@H](Cc2c[nH]c3ccccc23)NC(=O)[C@@H]2C[C@@H](O)CN2C(=O)[C@@H]2CCCN2C(=O)[C@H]([C@@H](C)O)NC(=O)[C@H](CO)NC(=O)[C@H](Cc2c[nH]c3ccccc23)NC(=O)[C@H](CC(=O)O)NC(=O)[C@H](CCCCNC(=N)N)NC1=O)”, the “final HPLC purity” value was greater than 97% and the isolated yield was 8%.
